In publication PMC2413403:

Molecular target: hamster Nkx2-2 (hamster)
Assay: co-IP; mPAC cells given AdCMV-Math6 with expression vectors for Neurog3, NeuroD1 or Nkx2-2; 500 ug lysate in coIP buffer (100 mM NaCl, 20 mM Tris-HCl pH 7.5, 1 mM EDTA, 1% Igepal CA-630, 5 mM NaF); immunoprecipitated with anti-FLAG, anti-Nkx2-2 or mouse IgG1 overnight at 4°C; protein G dynabeads; immunoblotted with anti-myc

B1: Math6 (mouse atonal homolog 6) with an N-terminal c-myc tag (protein, UniProt Q99NA2 1-322)
chain: MKHIPVLEDGPWKTVCVKELNGLKKLKRKGKEPVRRANGYKTFRLDLEAPELGATVSTTAATNGLRDRTQPFPIATPVPASVAPAVPPGGGTDTAREFRGIRAPEVSDARKRGFALGTVGPGLPTPPPPPASQSLAPGDPEAHSFREQALRPRILLCAPPARPTQSAPLAPPAAPQESPVRPAPPTRPGESSYSSISHVIYNNHPDSSASPRKRPGEATAASTEIKALQQTRRLLANARERTRVHTISAAFEALRKQVPCYSYGQKLSKLAILRIACNYILSLARLADLDYSADHSNLSFSECVQRCTRTLQAEGRAKKRKE
binding: no binding

These are yes or no findings as the source states them, for the method shown. In cells and extracts the contact can be indirect. Sequences can lack the tags named with a protein.
